Assay results taken from paper PMC11642102.
Results are given in words; binding and its absence hold for the method and conditions named. Binding seen in cells or lysates may run through a third protein. Here binding means that the protein was enriched with, or labelled near, the bait; the list need not be complete.

Protein sequences, listed by entry. Tags and fused reporters are not part of them.
UniProt Q01827: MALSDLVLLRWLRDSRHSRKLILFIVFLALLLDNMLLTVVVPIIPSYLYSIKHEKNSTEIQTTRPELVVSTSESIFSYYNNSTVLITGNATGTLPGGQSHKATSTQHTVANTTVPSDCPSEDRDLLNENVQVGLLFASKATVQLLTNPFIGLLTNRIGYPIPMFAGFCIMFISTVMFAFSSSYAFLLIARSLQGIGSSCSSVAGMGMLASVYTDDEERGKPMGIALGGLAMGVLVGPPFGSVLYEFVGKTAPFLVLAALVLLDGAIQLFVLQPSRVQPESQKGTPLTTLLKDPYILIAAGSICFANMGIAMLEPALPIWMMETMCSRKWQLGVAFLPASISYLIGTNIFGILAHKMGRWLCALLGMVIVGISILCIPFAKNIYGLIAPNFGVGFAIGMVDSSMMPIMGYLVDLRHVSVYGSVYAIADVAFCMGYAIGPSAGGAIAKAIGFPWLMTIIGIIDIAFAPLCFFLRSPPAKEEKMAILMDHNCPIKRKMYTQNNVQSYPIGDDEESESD
UniProt O08835: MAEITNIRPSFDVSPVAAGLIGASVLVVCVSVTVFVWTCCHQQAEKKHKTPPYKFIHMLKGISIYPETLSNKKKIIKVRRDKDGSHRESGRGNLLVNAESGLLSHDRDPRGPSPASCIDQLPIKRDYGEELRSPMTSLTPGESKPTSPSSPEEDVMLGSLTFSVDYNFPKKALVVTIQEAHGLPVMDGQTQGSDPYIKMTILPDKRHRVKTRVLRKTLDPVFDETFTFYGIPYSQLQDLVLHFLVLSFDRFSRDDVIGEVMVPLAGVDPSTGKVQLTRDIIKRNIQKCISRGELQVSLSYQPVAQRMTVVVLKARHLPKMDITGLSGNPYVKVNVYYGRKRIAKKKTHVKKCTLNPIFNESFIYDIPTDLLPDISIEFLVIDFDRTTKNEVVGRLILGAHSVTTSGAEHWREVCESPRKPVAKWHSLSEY
UniProt Q6MG11: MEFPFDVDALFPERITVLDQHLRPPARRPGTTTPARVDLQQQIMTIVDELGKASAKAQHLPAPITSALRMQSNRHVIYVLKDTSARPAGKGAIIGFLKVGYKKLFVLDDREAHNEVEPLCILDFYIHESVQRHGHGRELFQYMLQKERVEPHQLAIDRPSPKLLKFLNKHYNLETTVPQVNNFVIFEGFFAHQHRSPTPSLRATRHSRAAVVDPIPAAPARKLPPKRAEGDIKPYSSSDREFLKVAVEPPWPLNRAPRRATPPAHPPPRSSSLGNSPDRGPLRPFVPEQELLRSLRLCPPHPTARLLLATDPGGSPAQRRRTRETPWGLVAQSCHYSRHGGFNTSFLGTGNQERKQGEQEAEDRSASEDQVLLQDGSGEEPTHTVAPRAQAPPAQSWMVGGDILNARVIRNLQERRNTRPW
UniProt Q62910: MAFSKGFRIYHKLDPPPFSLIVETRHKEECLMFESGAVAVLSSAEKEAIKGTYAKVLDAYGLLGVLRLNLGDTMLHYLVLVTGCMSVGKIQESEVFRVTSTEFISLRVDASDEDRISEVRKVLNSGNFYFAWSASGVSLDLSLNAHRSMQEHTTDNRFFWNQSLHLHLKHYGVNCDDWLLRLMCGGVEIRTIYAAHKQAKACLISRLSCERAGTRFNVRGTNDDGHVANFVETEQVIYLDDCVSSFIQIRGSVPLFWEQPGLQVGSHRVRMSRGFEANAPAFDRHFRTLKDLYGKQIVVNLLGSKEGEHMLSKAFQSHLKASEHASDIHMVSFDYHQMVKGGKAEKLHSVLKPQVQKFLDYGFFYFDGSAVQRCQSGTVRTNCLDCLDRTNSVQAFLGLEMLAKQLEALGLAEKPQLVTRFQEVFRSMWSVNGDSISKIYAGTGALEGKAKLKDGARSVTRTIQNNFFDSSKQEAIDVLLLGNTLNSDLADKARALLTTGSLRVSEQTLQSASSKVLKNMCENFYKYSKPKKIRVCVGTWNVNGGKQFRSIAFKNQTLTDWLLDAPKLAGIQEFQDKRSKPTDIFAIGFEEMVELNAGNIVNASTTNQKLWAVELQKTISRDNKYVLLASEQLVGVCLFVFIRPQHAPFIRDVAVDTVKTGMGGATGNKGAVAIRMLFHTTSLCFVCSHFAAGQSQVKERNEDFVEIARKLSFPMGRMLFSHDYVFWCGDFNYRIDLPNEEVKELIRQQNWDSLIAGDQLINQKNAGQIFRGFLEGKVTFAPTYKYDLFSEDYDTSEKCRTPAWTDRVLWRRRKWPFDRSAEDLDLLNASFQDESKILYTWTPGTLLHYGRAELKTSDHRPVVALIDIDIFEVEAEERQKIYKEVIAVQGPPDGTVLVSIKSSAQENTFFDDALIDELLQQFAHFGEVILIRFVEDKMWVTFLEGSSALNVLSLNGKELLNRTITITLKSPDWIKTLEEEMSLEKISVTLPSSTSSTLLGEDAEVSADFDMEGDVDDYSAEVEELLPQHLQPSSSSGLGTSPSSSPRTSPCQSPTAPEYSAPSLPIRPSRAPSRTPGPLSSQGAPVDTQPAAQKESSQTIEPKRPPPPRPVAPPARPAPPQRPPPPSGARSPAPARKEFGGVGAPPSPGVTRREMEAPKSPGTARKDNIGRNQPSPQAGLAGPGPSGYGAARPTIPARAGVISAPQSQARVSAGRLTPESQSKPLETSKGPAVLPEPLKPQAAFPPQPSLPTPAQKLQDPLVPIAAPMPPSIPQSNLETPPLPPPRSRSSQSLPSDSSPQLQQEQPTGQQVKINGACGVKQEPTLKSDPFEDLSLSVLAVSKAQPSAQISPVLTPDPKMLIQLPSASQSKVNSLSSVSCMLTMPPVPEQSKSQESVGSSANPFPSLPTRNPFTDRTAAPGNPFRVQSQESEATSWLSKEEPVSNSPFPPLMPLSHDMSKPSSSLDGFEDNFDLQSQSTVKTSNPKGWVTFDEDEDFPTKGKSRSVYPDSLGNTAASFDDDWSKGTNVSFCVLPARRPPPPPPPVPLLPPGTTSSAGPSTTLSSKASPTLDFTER
UniProt Q9Z0W5: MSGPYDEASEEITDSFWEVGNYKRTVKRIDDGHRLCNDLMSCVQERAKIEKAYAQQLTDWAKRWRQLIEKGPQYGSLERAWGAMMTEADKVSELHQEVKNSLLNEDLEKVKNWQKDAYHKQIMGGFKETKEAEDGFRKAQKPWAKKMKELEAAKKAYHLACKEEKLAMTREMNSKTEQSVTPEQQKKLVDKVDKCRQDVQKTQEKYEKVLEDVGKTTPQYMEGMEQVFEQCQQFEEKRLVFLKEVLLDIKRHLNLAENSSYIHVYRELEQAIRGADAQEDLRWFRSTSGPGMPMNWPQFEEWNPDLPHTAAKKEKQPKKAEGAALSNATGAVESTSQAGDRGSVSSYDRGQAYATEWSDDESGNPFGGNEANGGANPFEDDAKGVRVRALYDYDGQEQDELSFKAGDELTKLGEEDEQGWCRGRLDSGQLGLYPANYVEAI
UniProt Q3B8Q0: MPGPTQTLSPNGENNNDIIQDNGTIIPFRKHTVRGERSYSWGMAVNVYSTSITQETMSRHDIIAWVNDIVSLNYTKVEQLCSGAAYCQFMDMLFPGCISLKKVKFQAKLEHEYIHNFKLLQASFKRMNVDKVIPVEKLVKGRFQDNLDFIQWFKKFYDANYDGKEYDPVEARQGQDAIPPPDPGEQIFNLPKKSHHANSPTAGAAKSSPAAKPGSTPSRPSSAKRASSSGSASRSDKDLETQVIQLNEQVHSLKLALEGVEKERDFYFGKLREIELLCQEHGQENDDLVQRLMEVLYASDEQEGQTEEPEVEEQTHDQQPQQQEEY

The substances below were run against vesicular monoamine transporter-2 (VMAT2) (rat (endogenous in Sprague Dawley rat striatum)) (UniProt Q01827) (assay: affinity purification with mass spectrometry; Dynabeads with anti-VMAT2 antibody, membrane/endosomal fraction of striatal synaptosomes of saline- and METH-treated rats killed 1 h after treatment (n = 4); SDS-PAGE, in-gel trypsin digest, LC-MS/MS (Q Exactive)).

Substance | binding
synaptotagmin 11 (from UniProt O08835 1-430) | binds
Alpha-tubulin N-acetyltransferase 1 (from UniProt Q6MG11 1-421) | binds
synaptojanin-1 (from UniProt Q62910 1-1574) | binds
Protein kinase C and casein kinase substrate in neurons protein 1 (from UniProt Q9Z0W5 1-441) | binds
Microtubule-associated protein RP/EB family member 2 (from UniProt Q3B8Q0 1-326) | binds
